We go through one substance from patent publication US20220168392A1 (priority 2019, published 2022).

For the data set, the system named is healthy men. Nature of the data set: Study NAP1001: single IV dose in healthy men (platelet counts, safety). The format is in vivo, human. The conditions noted are these: for dose required to achieve a 2-3-fold (2-3.5-fold) platelet elevation in humans, fold lower compared to mice: humans vs mice; for dose required to achieve a 2-3-fold (2-3.5-fold) platelet elevation in humans, fold lower compared to rats: humans vs rats. On the procedure:
In the FIH, single dose, Phase 1 clinical study NAP1001, 40 healthy men were enrolled, and 30 subjects received a single IV dose of RWJ-800088 as a 5-mg/mL solution in saline (dose range 0.375 to 3 μg/kg); 10 subjects received placebo. […] Thirty-three (83%) of 40 subjects reported at least 1 treatment-emergent adverse event throughout the study. Similar proportions of subjects reported treatment-emergent adverse events following administration of placebo (9 [90%] of 10 subjects) and RWJ-800088 (24 [80%] of 30 subjects). […] Mean platelet counts increased with increasing RWJ-800088 dose compared with placebo from Day 6 onwards, peaking at Days 10 to 12 before gradually returning to baseline by Day 21 (FIG. 19).
The ratio of the maximum platelet counts to the baseline platelet counts following single escalating doses of RWJ-800088 to mice, rats, dogs, rhesus monkeys and human healthy volunteers is shown in Table 5. The dose required to achieve a 2-3.5-fold elevation in humans is ˜100-fold lower compared to mice, ˜1,000-fold lower compared to rats and >10,000-fold lower compared to canines and NHPs. […] The species differences in potency has been described for other TPO mimetics in the literature and is attributed to differences in receptor affinity (Erickson-Miller C L, et al. Discovery and characterization of a selective, nonpeptidyl thrombopoietin receptor agonist. Exp. Hematol. 2005; 33:85-93). […] It is discovered that the dose of RWJ-800088 that produces a survival benefit and protects against vascular and organ injury is the dose that produces a 2-4 fold elevation of platelets (Table 6).

With “methoxypolyethyleneglycol20000-propionyl-L-Isoleucyl-L-Glutamyl-Glycyl-L-Prolyl-L-Threonyl-L-Leucyl-L-Arginyl-L-Glutaminyl-L-2-Naphthylalanyl-L-Leucyl-L-Alanyl-L-Alanyl-L-Arginyl-Sarcosyl-Ne-(methoxypolyethyleneglycol20000-propionyl-L-Isoleucyl-L-Glutamyl-Glycyl-L-Prolyl-L-Threonyl-L-Leucyl-L-Arginyl-L-Glutaminyl-L-2-Naphthylalanyl-L-Leucyl-L-Alanyl-L-Alanyl-L-Arginyl-Sarcosyl-)-Lysinamide [RWJ-800088]”, the “dose required to achieve a 2-3-fold (2-3.5-fold) platelet elevation in humans, fold lower compared to mice” value is listed as approximately 100 fold and the “dose required to achieve a 2-3-fold (2-3.5-fold) platelet elevation in humans, fold lower compared to rats” value is ~1,000 fold. For the setting “humans vs canines and NHPs”, the “dose required to achieve a 2-3-fold (2-3.5-fold) platelet elevation in humans, fold lower compared to canines and NHPs” value is > 10,000 fold. For the same substance, under “listed as TPOm”, the “dose required to achieve a 2-3-fold (2-3.5-fold) platelet elevation in humans, fold lower compared to mice” value is on record as “about 100 fold” and the “dose required to achieve a 2-3-fold (2-3.5-fold) platelet elevation in humans, fold lower compared to rats” value is “about 1,000 fold”.
